The results in this text go back to PMC2715859.

No constants are given. Whether binding was seen depends on the method and setting. Binding seen in cells or lysates may run through a third protein. Some results given as binding are weak or reduced against the parent protein; the word gives no strength.

The assay concerns the target cellular prion protein PrP^C (mouse (endogenous in 1C11-derived cells)) (UniProt P04925). The assay is described as follows: co-IP.

B1: tissue non-specific alkaline phosphatase (TNAP) (enzyme, UniProt P09242 18-501)
chain: FVPEKERDPSYWRQQAQETLKNALKLQKLNTNVAKNVIMFLGDGMGVSTVTAARILKGQLHHNTGEETRLEMDKFPFVALSKTYNTNAQVPDSAGTATAYLCGVKANEGTVGVSAATERTRCNTTQGNEVTSILRWAKDAGKSVGIVTTTRVNHATPSAAYAHSADRDWYSDNEMPPEALSQGCKDIAYQLMHNIKDIDVIMGGGRKYMYPKNRTDVEYELDEKARGTRLDGLDLISIWKSFKPRHKHSHYVWNRTELLALDPSRVDYLLGLFEPGDMQYELNRNNLTDPSLSEMVEVALRILTKNLKGFFLLVEGGRIDHGHHEGKAKQALHEAVEMDQAIGKAGAMTSQKDTLTVVTADHSHVFTFGGYTPRGNSIFGLAPMVSDTDKKPFTAILYGNGPGYKVVDGERENVSMVDYAHNNYQAQSAVPLRHETHGGEDVAVFAKGPMAHLLHGVHEQNYIPHVMAYASCIGANLDHCAWAG
Turning to B1, the binding entry is given as “binds”.
